# Measured values published in PubChem BioAssay AID1487 (National Center for Advancing Translational Sciences (NCATS), 2009).
# Some of the results follow. Shown are side measurements of this screen, not its main read-out; they come without a call. Most of these compounds were active or inconclusive in the main read-out, so they are no random draw. Potencies come from curve fits of mixed quality, noted in brackets.
# Assay: qHTS Assay for Modulators of Lamin A Splicing
# Settings: HeLa LMNA splicing GFP/RFP minigene ratio, 48 h
# Procedure, shortened: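 S3 HeLa stable clones carrying a lamin A-EGFP splicing minigene plus DsRed2 were seeded at 600 cells/well in Opti-MEM with 2% FBS, pin-dosed and incubated 48 h at 37°C. Acumen cytometry (488 nm) gave the GFP/RFP total-intensity ratio.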
# [1] = measured here: RFP viability control channel
# [2] = measured here: GFP splicing reporter channel
Structure (SMILES),AC50 [1],AC50 [2]
CCN(CC)S(=O)(=O)c1ccc(C(=O)Nc2ccc3c(c2)OCCO3)cc1,"10 µM [rising, partial curve]",
COc1ccc(N(C)C(=O)c2cc3c(Cl)nc4ccccc4c3s2)cc1,"12.6 µM [rising, partial curve]","35.5 µM [rising, single point]"
CCOC(=O)C(CC)Sc1nnc2c3cc(C)ccc3n(C)c2n1 (stereo not drawn),"20 µM [rising, partial curve]","12.6 µM [rising, partial curve]"
COc1ccc(C)cc1N(C(=O)c1ccccc1F)c1nc2ccccc2s1,,"7.08 µM [rising, full curve, poor fit]"
CC1CCCN(S(=O)(=O)c2ccc(Br)s2)C1 (stereo not drawn),"0.398 µM [falling, partial curve]","0.0891 µM [falling, partial curve]"
CC(C)(C)n1[nH]c2c3c(ccc2c1=O)C(=O)c1ccccc1C3=O,"5.62 µM [rising, partial curve]",
C=CCCC(=O)Nc1nc(C)c(-c2csc(Nc3ccccc3OC)n2)s1,,"20 µM [rising, single point]"
Cn1c(Cn2nnc3ccccc32)nnc1SCC(=O)N1c2ccccc2Sc2ccccc21,"7.08 µM [rising, full curve]","6.31 µM [rising, single point]"
COc1ccc(S(=O)(=O)Nc2ccc(C)cc2)cc1N(C)S(=O)(=O)c1ccc(Cl)cc1,"15.8 µM [falling, partial curve, poor fit]",
O=C(O)c1ccc(NC(=O)c2cn(-c3ccccc3)nc2-c2ccc(Cl)cc2)cc1,,"5.01 µM [falling, partial curve, poor fit]"
Cc1ccc(C(O)CN2C3=NCCCN3c3ccccc32)cc1 (stereo not drawn),"2.51 µM [rising, single point]",
Cc1cc(C)c(NC(=O)C(C)n2nc(-c3ccc(C)c(C)c3)ccc2=O)c(C)c1 (stereo not drawn),"35.5 µM [falling, single point]",
CCOC(=O)c1cc(-c2ccccc2)n(CCCC(=O)Nc2ccc(C(C)C)cc2)c1C,"0.141 µM [falling, full curve, poor fit]","35.5 µM [falling, single point]"
COc1cc(/C=C/C(=O)O)cc(S(=O)(=O)N2CCc3ccccc32)c1OC,"22.4 µM [falling, single point]","35.5 µM [falling, partial curve]"
O[C@H]1COC2C1OC[C@@H]2O (stereo partly drawn),"0.794 µM [rising, partial curve, poor fit]","35.5 µM [rising, single point]"
CCCNC(=S)Nc1cccc(C(F)(F)F)c1,"10 µM [rising, partial curve, poor fit]","7.08 µM [rising, partial curve]"
CCc1ccccc1NC(=O)c1ccc(CN2CCC(Cc3ccccc3)CC2)cc1,"0.0316 µM [falling, single point]","1 µM [falling, single point]"
COc1ccc(C(=O)CN2CCN(S(=O)(=O)c3cccc([N+](=O)[O-])c3)CC2)cc1OC,"28.2 µM [falling, single point]","22.4 µM [falling, partial curve]"
CN(Cc1ccco1)c1cc(-c2ccccc2C(F)(F)F)ncn1,"35.5 µM [falling, single point]","35.5 µM [falling, single point]"
CCOc1ccccc1NC(=S)N(Cc1cc2ccc(C)cc2[nH]c1=O)CC1CCCN1CC (stereo not drawn),"4.47 µM [rising, full curve, poor fit]",
CC(=O)N1N=C(c2ccc(C)cc2)OC1c1cccnc1 (stereo not drawn),,"0.00316 µM [rising, full curve, poor fit]"
Cc1noc(C)c1-c1nc(N2CCN(C)CC2)c2ccccc2n1,,"22.4 µM [falling, partial curve]"
S=c1[nH]nc(C2CCCCC2)n1/N=C/C(Cl)=C\c1ccccc1,"35.5 µM [falling, single point]","35.5 µM [falling, single point]"
CC1=CN2C(=N)/C(=C/c3ccc(Sc4ccc(Cl)cc4)o3)C(=O)N=C2S1,"11.2 µM [rising, partial curve]",
O=S(=O)(c1ccc(F)cc1)N1CCC(O)(c2ccc3c(c2)OCO3)CC1,"31.6 µM [rising, single point]","35.5 µM [rising, single point]"
CCOC(=O)C1CCN(C(=O)CCS(=O)(=O)c2cc3c(cc2Cl)NC(=O)CO3)CC1,,"14.1 µM [falling, single point]"
COC(=O)c1ccccc1NC(=O)Cc1nc(-c2ccccc2)sc1-c1ccc(C)cc1,"22.4 µM [rising, single point]",

# As a short view, some entries already given:
Structure (SMILES),AC50 [1],AC50 [2]
CCc1ccccc1NC(=O)c1ccc(CN2CCC(Cc3ccccc3)CC2)cc1,"0.0316 µM [falling, single point]","1 µM [falling, single point]"
COc1ccc(C(=O)CN2CCN(S(=O)(=O)c3cccc([N+](=O)[O-])c3)CC2)cc1OC,"28.2 µM [falling, single point]","22.4 µM [falling, partial curve]"
CN(Cc1ccco1)c1cc(-c2ccccc2C(F)(F)F)ncn1,"35.5 µM [falling, single point]","35.5 µM [falling, single point]"
CCOc1ccccc1NC(=S)N(Cc1cc2ccc(C)cc2[nH]c1=O)CC1CCCN1CC (stereo not drawn),"4.47 µM [rising, full curve, poor fit]",

# (more compounds)

Structure (SMILES),AC50 [1],AC50 [2]
CN1Cc2c(N3CCOCC3)nc(SCc3ccccc3)c(C#N)c2CC1(C)C,"3.55 µM [rising, partial curve]",
Cc1ccc(C)c(OCC(=O)Nc2ccc(N3CCOCC3)cc2)c1,"15.8 µM [falling, partial curve, poor fit]","1.12 µM [falling, partial curve]"
CCC(=O)c1ccccc1OCCSc1nc(C)cc(=O)[nH]1,,"35.5 µM [falling, single point]"
CS(=O)(=O)N1CCN(C(=O)c2cc(-c3cccnc3)nc3ccc(Br)cc23)CC1,"7.94 µM [rising, partial curve]",
O=C(N/N=C/c1ccccc1)c1ccc(N2CCOCC2)c([N+](=O)[O-])c1,"5.62 µM [falling, single point]","0.355 µM [falling, partial curve, poor fit]"
O=C(c1ccc(Cn2cc(Cl)cn2)cc1)N1CCN(c2ccccc2)CC1,"35.5 µM [rising, single point]","8.91 µM [rising, partial curve, poor fit]"
O=C(NNc1c(Cl)cc(Cl)cc1Cl)c1cccc([N+](=O)[O-])c1,"7.94 µM [rising, partial curve, poor fit]",
NC(=S)N=Nc1c(O)n(CCCl)c2ccccc12,,"35.5 µM [rising, single point]"
Fc1cccc(Cl)c1-c1nnc2ccc3ccccc3n12,,"22.4 µM [falling, single point]"
O=C(O)CCCCCN1C(=O)/C(=C\c2ccncc2)SC1=S,"22.4 µM [rising, single point]","17.8 µM [rising, single point]"
COc1ccccc1CNC(=O)c1oc2ccc(S(=O)(=O)N3CCCCC3)cc2c1C,"0.631 µM [falling, full curve]","0.316 µM [falling, partial curve, poor fit]"
CCOc1ncccc1C(=O)Oc1ccc2c(c1)OCO2,"25.1 µM [rising, single point]",
NC(=O)c1ccc(C(F)(F)F)n(Cc2ccc(Cl)cc2)c1=O,"35.5 µM [rising, single point]","35.5 µM [rising, single point]"
COc1cc(O)sc1C=Nc1ccc(Cl)cc1Cl,,"5.62 µM [rising, single point]"
O=C(Cc1csc(-c2ccccc2)n1)Nc1ccc(C(F)(F)F)cc1,"12.6 µM [rising, partial curve]","11.2 µM [rising, partial curve, poor fit]"
CCc1ccc(C2c3[nH]c4ccccc4c3CCN2C(=O)c2ccc(=O)n(C)n2)cc1 (stereo not drawn),"15.8 µM [falling, single point]","0.0316 µM [rising, full curve, poor fit]"
Cc1ccc2c(N)c(C)ccc2c1,"7.08 µM [rising, partial curve, poor fit]",
CCc1cc2c(=O)n(Cc3ccco3)c(SCc3c(C)noc3C)nc2s1,"7.94 µM [rising, partial curve]",
CCOC(=O)c1c(C)oc2ccc(NS(=O)(=O)c3ccc4c5c(cccc35)C(=O)N4)cc12,"35.5 µM [rising, single point]","12.6 µM [rising, single point]"
O=C(CCCC(=O)N(CC(=O)NC1CCCC1)C1CCCC1)Nc1ccccn1,"35.5 µM [rising, single point]",
CCN1CCC[C@@H](OC(=O)C(c2ccccc2)c2ccccc2)C1,,"0.316 µM [falling, single point]"
CCOC(=O)C1=NN(C(C)=O)C2(CC(=O)N(c3ccc(C)c(C)c3)C2=O)C1 (stereo not drawn),"3.98 µM [rising, full curve, poor fit]","5.01 µM [rising, full curve]"
CC#CCN1c2ccccc2[C@]23C[C@@H](C(=O)OC)N(S(=O)(=O)c4ccc(OC)cc4)C2=NC(C(=O)OC)=C(C(=O)OC)[C@H]13,,"0.891 µM [rising, full curve, poor fit]"
O=C(CSCc1ccc(F)cc1)N1CCN(c2ccc(F)cc2)CC1,"15.8 µM [rising, partial curve]","11.2 µM [rising, partial curve]"
Nc1ncc(-c2nnnn2-c2ccc(Cl)cc2)c(-c2ccc(Cl)cc2)n1,"11.2 µM [falling, partial curve]","12.6 µM [falling, single point]"
Cc1ccccc1NC(=O)COc1ccc(Br)cc1C,"11.2 µM [falling, partial curve, poor fit]",
